Reference: US20100048699A1, “CHEMICAL COMPOUNDS” (SYNGENTA CROP PROTECTION, INC., priority 2006, published 2010)
Some entries share one result that the patent states for a list of compounds. For some assays here: At least one compound was matched to its structure with a doubt left.

Key:
Myzus persicae [1] = assay: Myzus persicae (green peach aphid) pea seedling root uptake test; conditions: 24 ppm test solution, roots of infested pea seedlings, 6 days; mortality
Myzus persicae [2] = assay: Myzus persicae (green peach aphid) sunflower leaf disc spray test; conditions: 200 ppm spray on sunflower leaf discs, mixed ages, 6 DAT; mortality
Tetranychus urticae = Tetranychus urticae (two-spotted spider mite) bean leaf disc spray test; conditions: 200 ppm spray on bean leaf discs, mixed ages, 8 days; egg, larval and adult mortality

Compound | control of Myzus persicae (Myzus persicae [1]) | control of Myzus persicae (Myzus persicae [2]) | control of Tetranychus urticae (Tetranychus urticae)
CCC(C)C(=O)OCCNC(=S)NC1CCc2c(F)cccc21 (centres unmarked) [Compound 3.080] | at least 80% | at least 80% | at least 80%
O=C(OCCNC(=S)N(C(=O)C1CC1)C1CCc2c(F)cccc21)C1CC1 (centres unmarked) [Compound 10.034] | – | at least 80% | –
CC(C)(C)CC(=O)OCCNC(=S)N(C(=O)CC(C)(C)C)C1CCc2c(F)cccc21 (centres unmarked) [Compound 10.022] | at least 80% | at least 80% | –
CCOC(=O)CC(=O)OCCNC(=S)NC1CCc2c(F)cccc21 (centres unmarked) [Compound 3.113] | at least 80% | at least 80% | at least 80%
C=C(C)C(=O)OCCNC(=S)NC1CCc2c(F)cccc21 (centres unmarked) [Compound 3.111] | – | at least 80% | at least 80%
OCCN(Cc1ccncc1)C(=S)NC1CCc2c(F)cccc21 (centres unmarked) [Compound 10.015] | – | at least 80% | –
CCOCOCCNC(=S)NC1CCc2c(F)cccc21 (centres unmarked) [Compound 3.076] | at least 80% | at least 80% | –
O=C(OCCNC(=S)NC1CCc2c(F)cccc21)C1CCCCC1 (centres unmarked) [Compound 3.086] | at least 80% | at least 80% | at least 80%
Cc1cccc2c1CCC2NC(=S)NC(C)(C)CO (centres unmarked) [Compound 2.091] | – | at least 80% | –
CCCC(=O)OCCNC(=S)NC1CCc2c(F)cc(C)cc21 (centres unmarked) [Compound 3.070] | at least 80% | at least 80% | –
Cc1ccc2c(c1)C(NC(=S)NCCO)CC2 (centres unmarked) [Compound 1.027] | at least 80% | at least 80% | –
CC(C)CC(=O)OCCNC(=S)N(C(=O)CC(C)C)C1CCc2c(F)cccc21 (centres unmarked) [Compound 10.020] | at least 80% | at least 80% | –
CC(=O)OCCNC(=S)NC1CCc2c(F)cc(C)cc21 (centres unmarked) [Compound 3.068] | at least 80% | at least 80% | –
Cc1cc(F)c2c(c1)C(NC(=S)NCCOC(=O)C(C)C)CC2 (centres unmarked) [Compound 3.071] | at least 80% | at least 80% | –
CCCCCCCCC(=O)OCCNC(=S)NC1CCc2c(F)cccc21 (centres unmarked) [Compound 3.100] | at least 80% | at least 80% | at least 80%
CC(C)C(=O)OCCNC(=S)NC1CCc2c(F)cccc21 (centres unmarked) [Compound 3.066] | at least 80% | at least 80% | at least 80%
O=C(OCCN(C(=O)c1ccccc1)C(=S)NC1CCc2c(F)cccc21)c1ccccc1 (centres unmarked) [Compound 10.009] | at least 80% | at least 80% | at least 80%
NN(CCO)C(=S)NC1CCc2c(F)cc(F)cc21 (centres unmarked) [Compound 9.001] | – | at least 80% | –
CCCCCCCCCCCC(=O)OCCNC(=S)NC1CCc2c(F)cccc21 (centres unmarked) [Compound 3.110] | at least 80% | at least 80% | at least 80%

Compound | control of Myzus persicae (Myzus persicae [1]) | control of Myzus persicae (Myzus persicae [2]) | control of Tetranychus urticae (Tetranychus urticae)
CC(NC(=S)NC1CCc2c(F)cc(F)cc21)C(O)c1ccccc1 (centres unmarked) [Compound 2.201] | – | at least 80% | –
Cc1ccc2c(c1)CCC2NC(=S)NCCOC(=O)C(C)(C)C (centres unmarked) [Compound 3.020] | at least 80% | at least 80% | at least 80%
CC(CC(=O)OCCNC(=S)NC1CCc2c(F)cccc21)CC(C)(C)C (centres unmarked) [Compound 3.115] | – | at least 80% | at least 80%
C=CCCCCCCCCC(=O)OCCNC(=S)NC1CCc2c(F)cccc21 (centres unmarked) [Compound 3.104] | at least 80% | at least 80% | at least 80%
O=C(Cc1ccccc1)OCCNC(=S)NC1CCc2c(F)cccc21 (centres unmarked) [Compound 3.089] | at least 80% | at least 80% | at least 80%
O=C(OCCNC(=S)NC1CCc2c(F)cccc21)c1cccnc1 (centres unmarked) [Compound 3.101] | at least 80% | at least 80% | at least 80%
O=C(Cc1cccs1)OCCNC(=S)NC1CCc2c(F)cccc21 (centres unmarked) [Compound 3.117] | at least 80% | at least 80% | at least 80%
OCCNC(=S)NC1CCc2c(F)cccc21 (single isomer, unassigned) [Compound 1.425] | at least 80% | at least 80% | –
COC(=O)OCCNC(=S)NC1CCc2c(F)cccc21 (centres unmarked) [Compound 3.043] | at least 80% | at least 80% | at least 80%
O=C(/C=C/c1cccc(C(F)(F)F)c1)OCCN(C(=O)/C=C/c1cccc(C(F)(F)F)c1)C(=S)NC1CCc2c(F)cccc21 (centres unmarked) [Compound 10.028] | – | at least 80% | at least 80%
CC(=O)OCCNC(=S)NC1CCc2c(C)cc(F)cc21 (centres unmarked) [Compound 3.064] | at least 80% | at least 80% | –
CCC(=O)OCCNC(=S)NC1CCc2c(F)cccc21 (centres unmarked) [Compound 3.031] | at least 80% | at least 80% | at least 80%
COC(=O)CC(=O)OCCNC(=S)NC1CCc2c(F)cccc21 (centres unmarked) [Compound 3.081] | at least 80% | at least 80% | at least 80%
COCC(=O)OCCNC(=S)NC1CCc2c(F)cccc21 (centres unmarked) [Compound 3.067] | at least 80% | at least 80% | –
OCCN(Cc1cccnc1)C(=S)NC1CCc2c(F)cccc21 (centres unmarked) [Compound 10.012] | – | – | at least 80%
OCCNC(=S)NC1CCc2ccccc21 (centres unmarked) [Compound 1.001] | at least 80% | – | –
CC(C)(CO)CNC(=S)NC1CCc2c(F)cc(F)cc21 (centres unmarked) [Compound 4.003] | – | at least 80% | –
CCCC(=O)OCCNC(=S)NC1CCc2c(C)cc(F)cc21 (centres unmarked) [Compound 3.073] | at least 80% | at least 80% | –
O=C(OCCNC(=S)NC1CCc2c(F)cccc21)C12CC3CC(CC(C3)C1)C2 (centres unmarked) [Compound 3.108] | – | at least 80% | at least 80%

Compound | control of Myzus persicae (Myzus persicae [1]) | control of Myzus persicae (Myzus persicae [2]) | control of Tetranychus urticae (Tetranychus urticae)
O=C(OCCN(C(=O)c1cccc(Cl)c1)C(=S)NC1CCc2c(F)cccc21)c1cccc(Cl)c1 (centres unmarked) [Compound 10.026] | – | at least 80% | –
O=C(OCCNC(=S)NC1CCc2c(F)cccc21)c1ccccc1 (centres unmarked) [Compound 3.035] | at least 80% | at least 80% | –
Cc1cccc2c1CCC2NC(=S)N(CCO)Cc1ccncc1 (centres unmarked) [Compound 10.016] | – | at least 80% | –
O=C(OCCN(C(=O)c1ccc(Cl)cc1)C(=S)NC1CCc2c(F)cccc21)c1ccc(Cl)cc1 (centres unmarked) [Compound 10.025] | – | at least 80% | at least 80%
OCCNC(=S)NC1CCc2c(Cl)cc(Cl)cc21 (centres unmarked) [Compound 1.205] | – | at least 80% | –
OCCNC(=S)NC1CCc2cscc21 (centres unmarked) [Compound 8.002] | – | at least 80% | –
CC(C)(C)C(=O)OCCNC(=S)NC1CCc2ccccc21 (centres unmarked) [Compound 3.010] | at least 80% | at least 80% | –
OCCNC(=S)NC1CCc2ccc(F)cc21 (centres unmarked) [Compound 1.012] | at least 80% | at least 80% | –
O=C(OCCN(C(=O)c1cccc2c1OC(F)(F)O2)C(=S)NC1CCc2c(F)cccc21)c1cccc2c1OC(F)(F)O2 (centres unmarked) [Compound 10.027] | – | at least 80% | –
O=C(OCCN(C(=O)C1CCCCC1)C(=S)NC1CCc2c(F)cccc21)C1CCCCC1 (centres unmarked) [Compound 10.024] | – | at least 80% | at least 80%
CSCCC(=O)OCCNC(=S)NC1CCc2c(F)cccc21 (centres unmarked) [Compound 3.083] | at least 80% | at least 80% | –
OCCNC(=S)NC1CCc2ccccc21 (single isomer, unassigned) [Compound 1.422] | – | at least 80% | at least 80%
OCCN(Cc1ccncc1)C(=S)NC1CCc2ccccc21 (centres unmarked) [Compound 10.014] | at least 80% | at least 80% | –
CC(C)CC(=O)OCCN(C(=O)CC(C)C)C(=S)NC1CCc2c(F)cccc21 (centres unmarked) [Compound 10.021] | at least 80% | at least 80% | –
Cc1cc(F)c2c(c1)C(NC(=S)NCCO)CC2 (centres unmarked) [Compound 1.118] | at least 80% | at least 80% | –
OCCNC(=S)NC1CCc2sccc21 (centres unmarked) [Compound 6.001] | – | at least 80% | –
CCCC(=O)OCCNC(=S)NC1CCc2c(F)cccc21 (centres unmarked) [Compound 3.065] | at least 80% | at least 80% | –
CCCCCCCC(=O)OCCNC(=S)NC1CCc2c(F)cccc21 (centres unmarked) [Compound 3.094] | at least 80% | at least 80% | –
